Data: publication PMC11068891
No constants are given. Whether binding was seen depends on the method and setting. Binding seen in cells or lysates may run through a third protein. These calls come from enrichment with a bait or labelling near it, and not all partners need be listed. A no says only that the protein was not detected with the bait. Tags and fused reporters may be left off the sequences shown.

The chains behind the UniProt entries cited, without tags or fusion partners. Where a name states a change or a piece, a line headed by the entry shows the natural chain unless it says otherwise.
UniProt Q8IJX8: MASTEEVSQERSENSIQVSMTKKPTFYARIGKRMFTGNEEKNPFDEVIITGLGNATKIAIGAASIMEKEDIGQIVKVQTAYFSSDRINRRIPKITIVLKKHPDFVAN
UniProt Q8IAX8: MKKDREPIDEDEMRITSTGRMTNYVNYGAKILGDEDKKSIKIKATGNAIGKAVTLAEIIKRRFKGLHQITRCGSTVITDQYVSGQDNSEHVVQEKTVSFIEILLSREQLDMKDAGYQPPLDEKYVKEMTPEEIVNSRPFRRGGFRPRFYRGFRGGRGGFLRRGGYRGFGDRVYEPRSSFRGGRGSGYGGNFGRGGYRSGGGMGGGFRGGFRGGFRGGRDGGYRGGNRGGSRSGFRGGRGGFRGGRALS
UniProt Q8IBH7: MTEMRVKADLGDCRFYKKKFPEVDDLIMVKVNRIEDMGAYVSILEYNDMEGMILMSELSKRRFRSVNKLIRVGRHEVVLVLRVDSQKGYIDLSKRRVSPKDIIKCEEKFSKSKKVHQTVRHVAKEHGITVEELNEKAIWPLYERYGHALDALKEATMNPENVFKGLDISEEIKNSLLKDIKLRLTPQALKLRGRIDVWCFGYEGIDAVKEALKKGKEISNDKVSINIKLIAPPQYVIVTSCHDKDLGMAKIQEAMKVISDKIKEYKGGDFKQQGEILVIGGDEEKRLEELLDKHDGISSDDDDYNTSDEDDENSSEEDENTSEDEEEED
UniProt C0H4T9: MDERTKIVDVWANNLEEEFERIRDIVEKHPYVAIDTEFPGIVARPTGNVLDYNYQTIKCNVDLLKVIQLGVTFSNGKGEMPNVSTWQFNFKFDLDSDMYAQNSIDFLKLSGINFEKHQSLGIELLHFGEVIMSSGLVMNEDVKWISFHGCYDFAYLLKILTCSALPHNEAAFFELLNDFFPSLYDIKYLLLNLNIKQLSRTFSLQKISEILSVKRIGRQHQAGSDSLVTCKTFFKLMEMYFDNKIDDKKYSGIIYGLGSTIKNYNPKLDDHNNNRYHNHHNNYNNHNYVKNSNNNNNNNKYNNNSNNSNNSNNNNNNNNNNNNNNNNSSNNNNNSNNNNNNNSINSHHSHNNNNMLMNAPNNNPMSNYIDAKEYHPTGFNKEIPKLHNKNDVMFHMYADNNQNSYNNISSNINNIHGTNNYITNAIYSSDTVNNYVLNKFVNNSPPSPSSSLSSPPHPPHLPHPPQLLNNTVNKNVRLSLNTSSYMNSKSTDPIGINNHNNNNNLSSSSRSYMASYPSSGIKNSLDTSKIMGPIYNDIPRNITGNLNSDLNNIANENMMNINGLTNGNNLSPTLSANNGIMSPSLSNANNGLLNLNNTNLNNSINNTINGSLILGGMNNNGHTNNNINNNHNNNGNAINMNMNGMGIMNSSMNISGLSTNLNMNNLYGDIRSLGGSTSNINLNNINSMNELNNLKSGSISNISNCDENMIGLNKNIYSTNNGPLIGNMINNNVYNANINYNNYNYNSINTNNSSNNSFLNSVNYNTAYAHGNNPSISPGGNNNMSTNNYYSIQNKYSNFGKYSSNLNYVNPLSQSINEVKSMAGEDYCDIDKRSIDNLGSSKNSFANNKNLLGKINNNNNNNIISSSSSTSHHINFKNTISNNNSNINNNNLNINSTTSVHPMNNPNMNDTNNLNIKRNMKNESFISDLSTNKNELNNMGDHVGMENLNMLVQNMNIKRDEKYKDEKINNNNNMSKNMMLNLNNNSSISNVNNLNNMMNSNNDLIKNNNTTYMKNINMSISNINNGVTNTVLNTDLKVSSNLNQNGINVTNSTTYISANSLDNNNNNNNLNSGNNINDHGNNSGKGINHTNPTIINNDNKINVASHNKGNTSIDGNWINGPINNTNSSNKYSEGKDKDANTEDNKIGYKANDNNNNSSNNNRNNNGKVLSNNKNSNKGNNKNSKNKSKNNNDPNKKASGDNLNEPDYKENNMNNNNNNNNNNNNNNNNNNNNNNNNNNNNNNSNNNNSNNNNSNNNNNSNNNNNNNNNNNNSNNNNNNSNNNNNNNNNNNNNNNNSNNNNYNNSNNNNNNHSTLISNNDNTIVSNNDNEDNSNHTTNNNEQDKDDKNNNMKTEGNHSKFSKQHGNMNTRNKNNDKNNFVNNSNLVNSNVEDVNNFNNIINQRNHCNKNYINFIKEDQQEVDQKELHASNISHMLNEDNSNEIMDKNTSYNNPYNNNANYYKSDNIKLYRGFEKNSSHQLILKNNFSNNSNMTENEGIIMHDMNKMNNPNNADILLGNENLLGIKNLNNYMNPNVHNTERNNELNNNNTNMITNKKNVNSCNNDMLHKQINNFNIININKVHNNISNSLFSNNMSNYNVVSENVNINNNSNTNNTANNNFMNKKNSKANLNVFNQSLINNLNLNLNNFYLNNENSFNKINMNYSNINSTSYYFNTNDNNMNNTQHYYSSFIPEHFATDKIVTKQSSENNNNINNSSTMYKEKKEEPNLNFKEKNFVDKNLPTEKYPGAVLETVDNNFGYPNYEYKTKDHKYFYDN
UniProt Q8IJN7: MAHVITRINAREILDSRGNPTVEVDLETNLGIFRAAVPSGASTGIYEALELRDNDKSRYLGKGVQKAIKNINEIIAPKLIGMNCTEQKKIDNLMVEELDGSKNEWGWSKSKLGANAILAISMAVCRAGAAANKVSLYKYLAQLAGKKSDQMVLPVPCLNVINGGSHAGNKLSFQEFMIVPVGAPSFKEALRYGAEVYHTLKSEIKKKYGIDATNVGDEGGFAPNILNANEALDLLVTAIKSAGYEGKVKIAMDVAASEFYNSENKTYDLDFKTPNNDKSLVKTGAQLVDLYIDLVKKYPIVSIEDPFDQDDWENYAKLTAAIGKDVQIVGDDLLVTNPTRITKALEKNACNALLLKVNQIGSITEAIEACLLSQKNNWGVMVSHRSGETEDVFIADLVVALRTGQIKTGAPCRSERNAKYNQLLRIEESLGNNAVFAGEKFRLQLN
UniProt A0A5K1K8Y8: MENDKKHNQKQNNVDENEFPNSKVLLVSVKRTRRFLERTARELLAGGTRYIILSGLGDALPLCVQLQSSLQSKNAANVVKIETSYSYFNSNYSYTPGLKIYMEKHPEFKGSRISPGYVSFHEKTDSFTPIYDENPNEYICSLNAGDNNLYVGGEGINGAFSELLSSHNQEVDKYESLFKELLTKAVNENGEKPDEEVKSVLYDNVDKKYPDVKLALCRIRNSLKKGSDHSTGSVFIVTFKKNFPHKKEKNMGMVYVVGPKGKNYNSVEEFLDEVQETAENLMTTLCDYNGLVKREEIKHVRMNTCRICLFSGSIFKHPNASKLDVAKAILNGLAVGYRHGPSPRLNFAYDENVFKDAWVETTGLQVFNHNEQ

How the values were obtained:
[1] = target: T1, PfDOZI::GFP (P. falciparum (endogenous in 3D7 parasites)) (UniProt O97285); test: affinity purification with mass spectrometry; GFP-Trap beads with lysate of PfDOZI::GFP schizonts under normal culture, native conditions; lysis and wash buffer 300 mM NaCl, 20 mM HEPES pH 7.9, 2 mM MgCl2, 0.2 mM EDTA, 0.1% NP40, 0.5 mM DTT; 4 °C, 2 h; agarose beads as control; LC-MS/MS in triplicate, SAINT, FDR 1%
T1 sequence: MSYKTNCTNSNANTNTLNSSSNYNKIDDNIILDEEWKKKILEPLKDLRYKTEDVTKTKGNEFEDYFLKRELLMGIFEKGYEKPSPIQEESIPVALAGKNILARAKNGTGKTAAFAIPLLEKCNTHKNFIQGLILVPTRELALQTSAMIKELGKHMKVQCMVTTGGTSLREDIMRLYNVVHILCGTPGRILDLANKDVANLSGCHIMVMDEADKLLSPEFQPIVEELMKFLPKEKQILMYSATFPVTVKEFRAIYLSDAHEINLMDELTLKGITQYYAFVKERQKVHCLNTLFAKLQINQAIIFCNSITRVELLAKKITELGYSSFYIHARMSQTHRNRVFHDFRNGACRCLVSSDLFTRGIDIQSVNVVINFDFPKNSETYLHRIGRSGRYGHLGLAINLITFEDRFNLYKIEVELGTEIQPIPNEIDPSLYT

[2] = target: T1, PfDOZI::GFP (P. falciparum (endogenous in 3D7 parasites)); test: affinity purification with mass spectrometry; GFP-Trap beads with lysate of PfDOZI::GFP schizonts under nutrient starvation (stressed schizonts), native conditions; same buffers (300 mM NaCl, 0.1% NP40), 4 °C, 2 h; agarose beads as control; LC-MS/MS in triplicate, SAINT, FDR 1%
[3] = target: T1, PfDOZI::GFP (P. falciparum (endogenous in 3D7 parasites)); test: affinity purification with mass spectrometry; GFP-Trap beads with lysate of purified PfDOZI::GFP gametocytes (day 5), native conditions; same buffers (300 mM NaCl, 0.1% NP40), 4 °C, 2 h; agarose beads as control; LC-MS/MS in triplicate, SAINT, FDR 1%

For LSm4, the binding [1] was “binds”.

With eIF3M the binding [2] was “binds”.

In the case of LSm12, the binding [1] is reported as “binds”.

For LSm2, the binding [1] was “binds”.

Alba3 (from UniProt Q8IJX8) was tested, and the binding [3] was “binds” and the binding [1] was “binds”.

In the case of LSm7, the binding [1] is reported as “binds”.

With LSm1 the binding [1] was “binds”.

Alba1 (from UniProt Q8IAX8) was tested, and the binding [3] was “binds” and the binding [1] was “binds”.

6-phosphofructokinase (enzyme) was tested, and the binding [3] was “binds”.

For eIF2α (from UniProt Q8IBH7), the binding [2] was “binds”.

LSm3 was tested, and the binding [1] was “binds”.

With CAF1 (from UniProt C0H4T9 1-1774) the binding [1] was “binds”.

In the case of “enolase (from UniProt Q8IJN7 1-446) (enzyme)”, the binding [3] is reported as “binds”.

PAIP1 (PABP-interacting protein 1) was tested, and the binding [2] was “binds”.

Alba4 (from UniProt A0A5K1K8Y8) was tested, and the binding [3] was “binds” and the binding [1] was “binds”.

B1: eIF4E (protein, UniProt O97266 1-227)
chain: MKYLTFNKNNRDAIDLSEKLEATKIDLSNPLLLQYNWVIWEQVSDNKIKQSNNYKDYTRPLAKFNSVQKFWQLWNRLPQPSDLLAQRSMTRFSEDGIFRIVDALMIFRDNIQPMWEDPANSGGGHFEYKILPKDYPYSQIDEFWNNLVLAIIGCSLKHYDLITGIRLVDKLSTTRYGYIRIEIWYTTITDESVKNYLRKDLEEHMCNRIDGSTIFPPRVKSLSHIHR
B1 was tested, and the binding [3] was “binds” and the binding [1] was “binds”.

B2: DCP1 (protein, UniProt Q8IJ85 1-1190)
chain: MKKRNTLSTSYGRLKGRVSRYDMNSSYNLNEHKNNKNSALEEIKDYKTGETSHDNINGNNINNNKNINNNNKINNNKINSSNNCALVNSSNTINNNLNNINNINNISNTNHSVNNSTYQSCNNKYNKNGFVYDYNTYYTKKSSDLKGKLKNENESMNSDGNNDVTRINSNHSNNIVLNDLNNSMNSLNIPKDNNISHVNNMTPINNMMKGINNRNDSVNTHMYNMKNLKDIRLYNHKEKKNVNEENVNVDQDNEEKNLVETQNENDKRNEKKEEDDDEDVDEAEEKEEEGMKLLREKICFKMLKSIDIYITEIIMKSCFVTVYKMKDDELKWKRADIEGFLYIVKRSIKPYYRLIITNKKNEKHLLQDIDTNMNLSTDQNYIFYRIINEETNVRNIYSLWFYSTEEKEQIYKVLKNIVEKAYQEKVGITQDNTNNVSNMNNICNVNNNRNSILTNIGSMKNGSVTMEEKLEIISEQMRKMSLRPENKESHKIIQNEHIEDNNHNEANIYNNNHNEANIYNNNHNDDNIYNNNHNEANIYNNNHNEANIYNNNHNNDNIYNNNHNNDNIYNNNHIGSSNFLKKSSLETNLISPNLINNSTIINQINNMTSLKNMKYNKMLPLKPDYNVGNDKEHILELIKNKNDIESIKRKIMSAADNTFPDAYLNNYHVGIINNMNNMNNMNNINNVNNINNMSNINNMSNINNMSNINNMSDINNVNSLPSINNNNNNNNQSGNTNIYNPNINVSTKKDEKAGRKLLYLIKGLSMVHDKNTEQNIMLNDELNNNKSPNILNKSYIDNNKNNGSHNEINSKKGGEAIMSLLGLSKNVDTKLEDDKKKNKKKKKNNSMNNSVLSSNNNMIENVDNMIKNNDSIIKNNDSIIKNNDHMIQNNDHMIQNNDHMVDSNNNYYISHNNVDKNVGDIVNLKNAQANLNQNIMYNNICKKKESGIGNVQKYENDLHNNSSFKYSKNLNKYENDDIVTLYNNNNNNNNNHNHTLGMSNEGEEKEMTTALLNIIKMKSSKTNVNNINELNNINELNNINKLNNMSRHNDNNVESNVLNPYNTNSYNVLLKMKSEIEKDEKKIINMIDNNHNNKNNNYNMNNKSSFNNNINNSHNNGSVFEETNHIVKYEKNNNKYEHTNNNISTNTSNFKNKSITLNRNTIHNIIKEILQSDEFIDLLWNKLTANQHFS
B2 was tested, and the binding [1] was “binds”.

B3: CELF1 (protein, UniProt Q8IDB7 1-509)
chain: MDDHENIDINDNSSDANTANYNQDKNENTSEVNDYSKEDIEGDENLKSSKGKQENNTKSSSDKDENTIDYGNHDFPCNPAPPVPIKLFIGRVPKNIEEDQLRPIFEEYGIVNEVVIIRDKITNVHKSSAFVKMASISEADNAIRLLNNQKTLDAQLGSLQVKYASGELNKLGFPQNIESGVDQAKLFIGSLPKNITEDNIKEMFSPYGTVEEVFIMKDNSTGLGKGCSFVKFSYKEQALYAIKSLNGKKTLEGCTRPVEVRFAEPKSSKQPQIPLTLQPMQNPPHAMAPQPSISSPNNINFGNNFSVNNNYPRQVGPWKEYYSGEGRPYYYNEQTNTTQWEMPKEFETLFMNNSANMHNLSESSGPPGANLFIFHVPNEWQQTDLIQAFSPFGELLSARIATEKNTGRNRGFAFVSYDSLESAAAAISQMNGFMALNKKLKVTVKKGEEDEMKKYVNQNGVNSFQQVPRVQKAIPAQPASMQPNLAYHQNPQAQNFFYSNSNSYRCGPY
B3 was tested, and the binding [1] was “binds”.

B4: CELF2/HoBo (protein, UniProt Q8ILZ7 1-514)
chain: MSYLSNMSNMNNMNNSTQQYNNENSESPYGEARMSEQCSYQMNSPYNPAPSIPIKLFVSSIPKNLTEEDIKSIFQEYGNIQDVVFIKDKKPNVNRSNVFVRMESIFYGQKAIKDLHGKRTLCETLGPLIVKFAIGELEKYGVNMNNANENEAKLFVGSLPKEITEEELRELFNRYGNVTEVYIMKNSNGISKRCAFVNYAYKEQGIFAIQNMNGKIATENAEKPIEVRFAETKNQLQEKHLFNRSLMNPLNNNMNNMDNMNNMDNMENMDNFDNNNNNNNSSYMQSHAFKNMNMDNFNRYSMNMNFNMQNNNNNQRNNNNNNNGNNNNDNNNNNNINNNNSNGNNNNNSSSNNNSPWKQYYSKEEGRPYYHNEITGETQWQKPRKIEQSFINPINMNEITGPVGANIFIFHIPNEWIQTDLLSAFSPFGNIISAHIATERDTGRNRGFAFVSYDNVDSAINAVKYMNGFLAHKKKLKVTIKKGEEQYVQALINQRNKLNSNDARRNFMENTTNA
In the case of B4, the binding [3] is reported as “binds” and the binding [1] is reported as “binds”.

B5: PABP2 (protein, UniProt Q8I2R8 1-202)
chain: MEQVNIDQMNAEKAKGDGANFKVQVDDINNIDKEFSDLQKLKMMNEGAEIQMNQGGNVDSHEQEQEEINNRSIFVGNVDYSTQPEELQSLFSECGLINRVTILVNKNTGHSKGYAYIEFADASSVRTALSLSESFFKKRQIKVCSKRRNIPGFNRPKISPFRGRGMKSALGVRGRLRQPSFRPFYRGRGAYKKIVTNPYERT
In the case of B5, the binding [2] is reported as “binds”.

B6: XRN1 homolog (PF3D7_1106300) (enzyme, UniProt A0A143ZZN7 1-733)
chain: MIAFISLWVLCIINVMAYCISLNKYKFIKSYNLYNKRKHQQNVLYGIPRMYKWLTSYYPTVREELINNEKQKSVDIFYIDMNGVIHHCTHANKEKLPIYDEHELFSNILQYLKNLFYLIKPKKLIYIGVDGVSPKAKMNQQRKRRFLSIFKINDNDNTSNLFNPNCITTGTDFMYKINLSLNKWFKILKKKKVFEFDVIFSGSDVAGEGEHKILKYIRENCKRDSNFKNYNHCIYGLDADLIMLSLVTHLNNIFILRDKFKISNDLHNNMLENIERTQNTFNNDEYNSFNEPQNDNINYNEEGENIQLNEKSKTNESLVKEENNVEYENNEEINNEINNEINNEINNEINNEINNEINNEINDEINKEINNGINNGINNGINNEINNEINNEINNGINNEINNSEGMNNILGGYKIPFLPKVHKYTKEYYMKYESLNSNDFEILDIYKLRNSIKTQIATYINKLKKEKNIVFSISRVVDDIVFLSFLVGNDFLPHIPNIDINEGSMNEILNSYIFYIYKYSNYITYKDKVHIERLKIILKILSAQEFEYFKKRGINENISEFTDEQKYKKYYYLHKFGLEDPKEIQNIVKKYIEGLFWNLHYYHFGCASWYWEYPYHYAPLCSDLLSFEKSDFFFEKGKPYSAFTHLISVLPQKDKNLLPDAYKNIYVEDEVKSFFPENVKIDPNGKKETWEYIVHLPFINCNMINKIITEKSKTISKLKYKLRELNGREHRY
For B6, the binding [2] was “no binding”, the binding [3] was “no binding” and the binding [1] was “no binding”.
